Experimental data from the supplement of paper PMC3334620.
The full ranking holds about 33,000 sequences; the median of “E-score (-0.5 to 0.5)” is about -0.0034, and the highest 2% start at about 0.25. This is one part of the list.

Each sequence was assayed against T1, Yap3 (UniProt P38749) (assay: PBM E-score (8-mer binding enrichment) (E-score (-0.5 to 0.5)); higher = stronger / more preferred TF binding). Conditions: protein concentration: 100 nM; construct: GST-full length.
T1 sequence: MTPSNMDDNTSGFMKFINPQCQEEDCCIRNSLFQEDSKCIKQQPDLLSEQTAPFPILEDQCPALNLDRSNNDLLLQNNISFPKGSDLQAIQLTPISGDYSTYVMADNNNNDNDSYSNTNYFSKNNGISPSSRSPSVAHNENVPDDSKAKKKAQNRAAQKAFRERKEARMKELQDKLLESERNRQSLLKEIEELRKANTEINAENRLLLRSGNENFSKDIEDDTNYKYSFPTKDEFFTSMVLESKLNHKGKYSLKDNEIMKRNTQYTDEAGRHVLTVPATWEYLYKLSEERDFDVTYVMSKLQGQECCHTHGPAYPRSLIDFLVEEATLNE
Procedure, shortened: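 E-scores (a modified Wilcoxon-Mann-Whitney statistic) were assigned by the Universal PBM Analysis Suite to every ungapped eight-base word pooled with its reverse complement. The input came from universal all-10-mer Agilent arrays made double-stranded by primer extension and probed with GST-tagged yeast transcription factors at about 100-200 nM. Fluorescent anti-GST detected bound protein, and masliner normalised the scans.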

Sequence	PBM E-score
AACCAGGT	-0.0843
AGGGCCGC	-0.349
GAAGTTCA	0.0821
AACCGCGC	0.198
CGATGCGA	-0.147
GAAACAAA	0.251
CTAGCTAG	0.0872
AGGTGGAG	-0.142
ACAGGGGG	-0.413
AAATGGAT	0.142
CAACCAGC	-0.0574
ATCCCGGA	0.00231
GCGCCAGC	-0.316
CGAGTATC	-0.0409
ATTTCTCG	0.251
ATCGTGGC	-0.105
GGGGATTA	0.0472
TGCAAAAA	0.194
CCGGTTGA	-0.115
ACGAGCGG	0.0103
GTACGGAC	0.0183
GAATTACC	0.0694
GGCTGCCC	-0.308
GGCTGATA	-0.059
AGGAGCGC	-0.0439

Sequence	PBM E-score
AGGAACAT	-0.0291
TATGAGAA	0.206
CTCAGCTA	-0.224
AGAAACTA	0.0625
ACGCATGA	0.0311
CCCCGACA	-0.127
AATTCCGT	0.235
ACGTACCT	-0.159
CCTCACGC	0.174
CAATTCAC	0.126
TGAGCACA	-0.00248
TGCCGCAA	0.168
ACCAAGTC	0.0727
CTCACCAG	-0.0897
CGGTGCAA	-0.238
ACGCGAAC	0.121
GCGTGGAC	-0.2
CGTGTCTA	0.0292
ACCATGGA	-0.167
TGTACTAA	0.189
GCGACGCA	-0.0118
AAGAAGAG	0.0502
AGTCCACC	0.0671
AGTGGGCA	0.073
CTCTGGGA	-0.259

Reformatted as a markdown table: part of the list above.

| Sequence | PBM E-score |
| --- | --- |
| CTCAGCTA | -0.224 |
| AGAAACTA | 0.0625 |

(continued)

Sequence	PBM E-score
CGAGATAC	0.235
GAAATACA	0.0912
GTGGTCAA	0.027
CGTCCACG	-0.108
ATAATTCG	0.242
CAAGTAGC	0.0461
GATCAATA	0.0561
CTAACTGA	0.0987
CGGGCTAC	-0.0803
AGCTTTTA	0.0679
GATATCCA	0.224
ATCAAAAA	0.245
CGTGACTC	-0.221
CAGCAGGG	-0.186
CCCTCCAC	-0.18
CGTCACAC	-0.0225
ACATCTCA	0.112
ATTACCAG	0.0993
ACGGGTCC	-0.285
TTCTAGAA	-0.0421
ACAACTGG	0.0446
TATCCTGA	0.182
ACCGCGCG	0.211
ATAAGACG	0.0979
GCACAGGC	0.0169

Sequence	PBM E-score
CAGACGGC	-0.217
GACGTTGA	-0.00153
CGGGCCGC	-0.11
AGCAGGCG	-0.122
AACATTAG	0.046
TACAAAAA	0.207
ACGGAAAC	-0.079
CATATACG	0.108
ACCTGGCC	-0.0457
GAGTTTGA	0.0875
ACCGTTAA	0.143
CGAGTGCC	-0.299
ATTTATCG	0.14
GGAGCTCC	-0.228
CCTGGGCG	-0.225
AACAAGGA	0.198
TCCCTAGA	-0.0665
GATCGCGC	0.0573
GGTCGGCA	-0.16
ACATCTTC	0.0249
AAGAGGCT	-0.0985
CATGCCGC	0.218
CACGATAA	0.2
CGTTCATA	-0.0126
CAACCTGA	-0.046

A few values from the entries so far:
In PBM E-score, ACATCTTC has the entry 0.0249
In PBM E-score, ACGGAAAC has the entry -0.079

Remaining list, next part:

Sequence	PBM E-score
CACGTAGA	0.129
AGGTTGTG	0.0448
ATGGCCGC	-0.139
CGTTTGGC	0.0237
ACCGATGA	0.00688
ATACAACC	0.158
ACTTGAAA	0.22
CCCATTCA	0.0473
GAACCCCA	-0.0227
CGACTAAC	0.0844
CCTAGCTA	-0.155
GCATACTA	-0.0542
CCTACCAG	-0.227
TGAAATCA	0.0982
CACATTTA	0.156
CAGAAAGA	0.0646
CCGGGTCA	-0.257
CAGTTACA	0.0866
AAAACATG	0.151
ACGCTCAG	-0.206
GCAGGGCA	-0.117
AGCATAAT	0.152
GCCCTCTA	-0.194
CTCTCGAC	-0.141
GCGATTCA	0.0209

2 entries picked at random from the list so far, as already listed:
Sequence	PBM E-score
ATTTATCG	0.14
CTCACCAG	-0.0897

(cont.)

Sequence	PBM E-score
AGCTGATC	0.0213
CGGTTAAG	-0.0153
AAGGACCT	0.0792
AGTGAATC	-0.0439
CCGATCTC	-0.0464
CGGTACAG	0.0621
ACTCAGTC	-0.0247
GCCAGTCA	-0.114
CGATGACG	-0.238
GCAAGAGC	0.0247
GAATCCCC	-0.226
CACATCCG	0.0282
AGTCGAGA	0.0233
TACGCAAA	-0.1
ATAGAACG	0.17
ATCATCGA	0.0689
CAACGATC	-0.0801
TCAACGGA	0.0124
TAGTGGCA	-0.0368
AAAGGCAG	-0.0629
CACTGTGA	-0.0193
CTCTTGAA	-0.0535
AGTAGTAA	0.0784
CGACGGGA	0.0333
AGGGACCG	-0.221

Sequence	PBM E-score
AGATATCG	-0.0884
ATGACTAG	0.07
ATCCGGCA	0.0844
AGGAGCGA	-0.178
ATTGGTCA	0.166
AATTAGAC	0.209
CTAGCGCC	-0.183
CATGGAGG	-0.253
ACCACACG	0.0216
GCCTGGTA	0.0208
GGTCTAAC	-0.068
CTTTCAGC	-0.103
AGTTTCTA	-0.0367
GCCGAGAA	0.0617
CTCCAAAA	-0.104
CTTACCTA	0.115
GACTCGAC	-0.152
CAAGCACC	-0.197
AGTGCGCC	-0.169
TCGATTAA	0.308
AACCCCTT	-0.132
CGGCTATA	0.0193
ACATAACC	0.0973
ATTTGGTC	0.117
CCTTTTGA	0.0986

Sequence	PBM E-score
CAGCGTGG	-0.117
ACGCATCC	-0.176
GCTGTTAC	-0.183
CACTACCA	0.0215
AAGTGTGC	0.101
GTAGAGAC	-0.183
AACCAACT	0.0968
GATTAGAA	0.0967
CCGTTTAC	0.136
CATGTACA	-0.00965
CTATGTTA	0.174
CTTCAGAC	-0.114
ACTATGCG	0.0104
CACGGCTC	-0.0628
GCGTACAA	-0.066
ACTCAGCG	0.0316
GGGCAAGA	0.116
AGCATGAA	0.0995
ATGACCTC	-0.118
AATGGTCT	-0.159
CTCGCATC	-0.0576
CTATTTGC	-0.0602
CAACTAGA	-0.00242
AAGATATC	0.118
GAGTAGGA	-0.0726

Sequence	PBM E-score
GTCAAATA	0.209
GCGGCTTA	0.0695
CTTATATA	0.315
CGCACTTC	-0.0913
AAATTACA	0.217
CCTCGTTA	0.0852
CCGTGACG	-0.106
AATTGGCG	0.0836
AGGGGAAA	-0.0319
AACTGCGC	-0.0507
AAGATTGT	0.056
ATTACTCC	0.143
GTAGCCAC	-0.141
GATGATGA	0.0246
CAACGTCC	-0.231
AAGATTTG	0.0472
AACCCTTG	-0.162
ATCAGGCG	0.0742
ATAACCGC	0.0861
